Data on 42 sequences can be found in PMC7819943, “Rice protein-binding microarrays: a tool to detect cis-acting elements near promoter regions in rice”.

This is one part of the list.

The target of this test is T1, OsSMF1 (Oryza sativa, UniProt Q6ZLB0 1-436).
T1 sequence: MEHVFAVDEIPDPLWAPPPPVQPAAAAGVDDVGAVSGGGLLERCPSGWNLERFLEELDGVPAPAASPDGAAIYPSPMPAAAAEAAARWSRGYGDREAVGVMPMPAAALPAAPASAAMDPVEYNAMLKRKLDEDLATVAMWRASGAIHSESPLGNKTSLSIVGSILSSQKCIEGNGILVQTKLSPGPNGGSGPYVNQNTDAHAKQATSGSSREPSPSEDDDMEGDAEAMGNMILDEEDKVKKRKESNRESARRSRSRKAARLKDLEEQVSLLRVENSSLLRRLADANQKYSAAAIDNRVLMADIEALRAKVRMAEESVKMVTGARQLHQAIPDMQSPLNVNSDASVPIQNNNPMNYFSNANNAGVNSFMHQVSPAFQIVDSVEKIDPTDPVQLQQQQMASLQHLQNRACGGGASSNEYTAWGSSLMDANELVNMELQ
Nature of the test: protein-binding microarray (RPBM); PBS, 2% BSA, 51.3 ng/ul salmon testes DNA, 50 uM zinc acetate, 200 nM TF, 25 C, 1 h; high values mean tight binding. As to conditions: protein: recombinant; tags: N-terminal polyhistidine and DsRed monomer fusion (pET32a); chain copies: 2; label: CyDye5-dUTP incorporated in the synthesized complementary strand; 3' TTTTT single-stranded linker to array surface; dsDNA, one strand shown. An outline of the steps: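 Using Ni–NTA, transcription factors fused N-terminally to polyhistidine and DsRed were purified after expression in E. coli BL21-CodonPlus. These were incubated at 200 nM with a blocked, double-stranded custom Agilent array for 1 h at 25 °C in a buffer containing 50 µM zinc acetate, and the array was washed. The binding signal is per-feature fluorescence intensity (arbitrary units) on an Axon 4000B scanner.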
For “AGACCCAAAACCCGCGCCACGTACGCGCGAGCCCTTCTCCCGGAGTCACCTAGTGCAG”, the binding signal was 13300 fluorescence intensity (a.u.).
Turning to “CGTTCGCTTCTCTTCTCCCCGCTCCGCTAGTCATCAACCACGGAGTCACCTAGTGCAG”, the binding signal is 3240 fluorescence intensity (a.u.).
With “TTGGTATTTTACGTGTAGGGTTTGTGATGTGAAGGTCCGACGGAGTCACCTAGTGCAG” the figure was 3330 fluorescence intensity (a.u.); with “CGCACGTACGTGCTAGCAATTTAGCTGGCGCCCGCGTCAGCGGAGTCACCTAGTGCAG”, 4180 fluorescence intensity (a.u.).
With “AGAGAAAGATTAGAGCCACATACATTTGGGAGGAGTTAATCGGAGTCACCTAGTGCAG” the figure was 4540 fluorescence intensity (a.u.); with “GAATAGCACTTACTAGAGCTGGTGAGCTCTCTTTAATGCACGGAGTCACCTAGTGCAG”, 29300 fluorescence intensity (a.u.); with “TGAAGCTGACATGATAACACTATCGTAGGTCCAGGTTGGCCGGAGTCACCTAGTGCAG”, 3750 fluorescence intensity (a.u.).
For the sequence “ATCTCCAGGTTAGTAGATAGCTTTGTTCTCTCTCTTCATTCGGAGTCACCTAGTGCAG”, the binding signal was 36400 fluorescence intensity (a.u.).
For the sequence “AGCCAGGGGAAGGGTCAGATGACAATGCAGTTTCTGCTGCCGGAGTCACCTAGTGCAG”, the binding signal was 20100 fluorescence intensity (a.u.).
On to “GGCAGGCAGGCAGCAGGCCACGCTCCCCTCGCAGCCACCACGGAGTCACCTAGTGCAG”, for which the binding signal was 3810 fluorescence intensity (a.u.).
With “CACGAAGATCTCCTCCTCAGCCAACTCACCGGTGACGCTGCGGAGTCACCTAGTGCAG”, the binding signal was 6320 fluorescence intensity (a.u.).
With “TGTAGTGTTACAGTATGCCACGTCATCATGCTACGCTATTCGGAGTCACCTAGTGCAG” the figure was 43900 fluorescence intensity (a.u.); with “TGGGCCAAATCCCACGTGTCAACCTGTTCTGATCCCACACCGGAGTCACCTAGTGCAG”, 19600 fluorescence intensity (a.u.).
With “GCGCCACCGATCGAATTCACGACTGAATTAGTTTCTTCTTCGGAGTCACCTAGTGCAG” the figure was 4070 fluorescence intensity (a.u.); with “GGTCGCGGGACCGACGCGTCAGATGCCTCGTCCGGCCGTGCGGAGTCACCTAGTGCAG”, 5350 fluorescence intensity (a.u.).
For the sequence “TTATATTTGTTGCAAAACACGTATGTATAATTTATCTAGTCGGAGTCACCTAGTGCAG”, the binding signal is 4620 fluorescence intensity (a.u.).
For the sequence “GTCCTACACGCTTGAAGGCGGACTATGCGTCTATGCCCTACGGAGTCACCTAGTGCAG”, the binding signal is 14600 fluorescence intensity (a.u.).
With “CAACCACCACGCAAACAAACACGAAGTTCGCGCCGTCGACCGGAGTCACCTAGTGCAG” the figure was 3650 fluorescence intensity (a.u.); with “CGCACCTGCGTACGATCGACGTGTAGTCGTTATCTGTCTCCGGAGTCACCTAGTGCAG”, 5310 fluorescence intensity (a.u.).
Next, “TAGATCTTGGGTGGATGTGGCTAGAGGGATGGTGGACGAACGGAGTCACCTAGTGCAG”: 3200 fluorescence intensity (a.u.); “TGATCACGTGACAGCTGGACCCCACGTCACGCCCACACACCGGAGTCACCTAGTGCAG”: 24700 fluorescence intensity (a.u.); “TCATCCAAGCACAAATTGCTATATTTTGGGACGGATGGAGCGGAGTCACCTAGTGCAG”: 16600 fluorescence intensity (a.u.).
Next, “CGGACAGCCCCAACACCGACGGCATCCACGTCGCGCTGTCCGGAGTCACCTAGTGCAG”: 4070 fluorescence intensity (a.u.); “CAGAGGAAGGGAAAGAAAGCTCCAATCTCGCCTCTGCTCCCGGAGTCACCTAGTGCAG”: 15000 fluorescence intensity (a.u.); “TTCATAGAGAGGGCCGGCAACGGCCTAGGCACGCTGGTGTCGGAGTCACCTAGTGCAG”: 34700 fluorescence intensity (a.u.).
For “GCCTCAGCCGCCCTGACATGGCACGGGCTTCCCCGTGCGGCGGAGTCACCTAGTGCAG”, the binding signal is 5710 fluorescence intensity (a.u.).
“TATTCCCGCACGTGGCCGTAATGTTGGTCCGTCAGTTACACGGAGTCACCTAGTGCAG”: the binding signal is 3160 fluorescence intensity (a.u.).
On to “GACCCTTGCCTTGACGTCAAAGCATGAATAGTTAAGTACGCGGAGTCACCTAGTGCAG”, for which the binding signal is 3190 fluorescence intensity (a.u.).
With “CCACTTCACCATCTTGTCATGTCTTCCTCCACGCTTCTGCCGGAGTCACCTAGTGCAG” the figure was 3230 fluorescence intensity (a.u.).
Consider “CCTGGGCGCTTCCATCAACTCGACCAGTTGGATCGACATGCGGAGTCACCTAGTGCAG”, for which the binding signal was 5430 fluorescence intensity (a.u.).
With “TACCCTCCTCTTCCTCTACACCTCATACTCCTAGCTCTCTCGGAGTCACCTAGTGCAG” the figure was 3770 fluorescence intensity (a.u.); with “TCGAGGCGCACGTGGCCCGTGCTGCGGCGGCCACGTGGGCCGGAGTCACCTAGTGCAG”, 10400 fluorescence intensity (a.u.); with “CCATGTCCTTTCCGCTAGTTGACCGTTAGTTGACTGTTAACGGAGTCACCTAGTGCAG”, 3340 fluorescence intensity (a.u.).
“TTTTGACCAACATCAGGTCAACCGGATCGACGTGGTCACGCGGAGTCACCTAGTGCAG”: the binding signal was 4270 fluorescence intensity (a.u.).
Next, “TTGGGGTTTCGGGATGTCATACAAACTTGTCGTAAAGTTGCGGAGTCACCTAGTGCAG”: 6700 fluorescence intensity (a.u.); “ATCATGTCGTCGTTGCGTCGTCATCGTTGTTCTTCGTCGACGGAGTCACCTAGTGCAG”: 9230 fluorescence intensity (a.u.); “TCTAGAGGGGAATATATAGTATGACTCTTTTCTTCTGTTGCGGAGTCACCTAGTGCAG”: 3350 fluorescence intensity (a.u.).
Next, “TTGTCATGGCTGAGTCATGAAATGTATAGTTCAATCTTGCCGGAGTCACCTAGTGCAG”: 11400 fluorescence intensity (a.u.).
As for “ATTCAGCACATGCCTTATACATGTCATGGCAAAACGCTGACGGAGTCACCTAGTGCAG”, the binding signal is 3790 fluorescence intensity (a.u.).
Next, “TTCAATCCTGGGCCACGGCATGCATTTCGATCACCTCGTCCGGAGTCACCTAGTGCAG”: 3190 fluorescence intensity (a.u.).
In the case of “TTCTTCCCCTCGCATACGTGCGCAATACATAGTGCATTCCCGGAGTCACCTAGTGCAG”, the binding signal was 4160 fluorescence intensity (a.u.).
With “GGCGGCGATGGCCCTCTGACGCGACGCGCGCCTTTCTCTGCGGAGTCACCTAGTGCAG” the figure was 3970 fluorescence intensity (a.u.).
